Molecular target: Sodium channel protein type 9 subunit alpha (Homo sapiens, UniProt Q15858)
Assay: cell-based

Sequences of proteins named here, by UniProt entry; tags and fusion partners are left off.
UniProt Q15858, whole entry: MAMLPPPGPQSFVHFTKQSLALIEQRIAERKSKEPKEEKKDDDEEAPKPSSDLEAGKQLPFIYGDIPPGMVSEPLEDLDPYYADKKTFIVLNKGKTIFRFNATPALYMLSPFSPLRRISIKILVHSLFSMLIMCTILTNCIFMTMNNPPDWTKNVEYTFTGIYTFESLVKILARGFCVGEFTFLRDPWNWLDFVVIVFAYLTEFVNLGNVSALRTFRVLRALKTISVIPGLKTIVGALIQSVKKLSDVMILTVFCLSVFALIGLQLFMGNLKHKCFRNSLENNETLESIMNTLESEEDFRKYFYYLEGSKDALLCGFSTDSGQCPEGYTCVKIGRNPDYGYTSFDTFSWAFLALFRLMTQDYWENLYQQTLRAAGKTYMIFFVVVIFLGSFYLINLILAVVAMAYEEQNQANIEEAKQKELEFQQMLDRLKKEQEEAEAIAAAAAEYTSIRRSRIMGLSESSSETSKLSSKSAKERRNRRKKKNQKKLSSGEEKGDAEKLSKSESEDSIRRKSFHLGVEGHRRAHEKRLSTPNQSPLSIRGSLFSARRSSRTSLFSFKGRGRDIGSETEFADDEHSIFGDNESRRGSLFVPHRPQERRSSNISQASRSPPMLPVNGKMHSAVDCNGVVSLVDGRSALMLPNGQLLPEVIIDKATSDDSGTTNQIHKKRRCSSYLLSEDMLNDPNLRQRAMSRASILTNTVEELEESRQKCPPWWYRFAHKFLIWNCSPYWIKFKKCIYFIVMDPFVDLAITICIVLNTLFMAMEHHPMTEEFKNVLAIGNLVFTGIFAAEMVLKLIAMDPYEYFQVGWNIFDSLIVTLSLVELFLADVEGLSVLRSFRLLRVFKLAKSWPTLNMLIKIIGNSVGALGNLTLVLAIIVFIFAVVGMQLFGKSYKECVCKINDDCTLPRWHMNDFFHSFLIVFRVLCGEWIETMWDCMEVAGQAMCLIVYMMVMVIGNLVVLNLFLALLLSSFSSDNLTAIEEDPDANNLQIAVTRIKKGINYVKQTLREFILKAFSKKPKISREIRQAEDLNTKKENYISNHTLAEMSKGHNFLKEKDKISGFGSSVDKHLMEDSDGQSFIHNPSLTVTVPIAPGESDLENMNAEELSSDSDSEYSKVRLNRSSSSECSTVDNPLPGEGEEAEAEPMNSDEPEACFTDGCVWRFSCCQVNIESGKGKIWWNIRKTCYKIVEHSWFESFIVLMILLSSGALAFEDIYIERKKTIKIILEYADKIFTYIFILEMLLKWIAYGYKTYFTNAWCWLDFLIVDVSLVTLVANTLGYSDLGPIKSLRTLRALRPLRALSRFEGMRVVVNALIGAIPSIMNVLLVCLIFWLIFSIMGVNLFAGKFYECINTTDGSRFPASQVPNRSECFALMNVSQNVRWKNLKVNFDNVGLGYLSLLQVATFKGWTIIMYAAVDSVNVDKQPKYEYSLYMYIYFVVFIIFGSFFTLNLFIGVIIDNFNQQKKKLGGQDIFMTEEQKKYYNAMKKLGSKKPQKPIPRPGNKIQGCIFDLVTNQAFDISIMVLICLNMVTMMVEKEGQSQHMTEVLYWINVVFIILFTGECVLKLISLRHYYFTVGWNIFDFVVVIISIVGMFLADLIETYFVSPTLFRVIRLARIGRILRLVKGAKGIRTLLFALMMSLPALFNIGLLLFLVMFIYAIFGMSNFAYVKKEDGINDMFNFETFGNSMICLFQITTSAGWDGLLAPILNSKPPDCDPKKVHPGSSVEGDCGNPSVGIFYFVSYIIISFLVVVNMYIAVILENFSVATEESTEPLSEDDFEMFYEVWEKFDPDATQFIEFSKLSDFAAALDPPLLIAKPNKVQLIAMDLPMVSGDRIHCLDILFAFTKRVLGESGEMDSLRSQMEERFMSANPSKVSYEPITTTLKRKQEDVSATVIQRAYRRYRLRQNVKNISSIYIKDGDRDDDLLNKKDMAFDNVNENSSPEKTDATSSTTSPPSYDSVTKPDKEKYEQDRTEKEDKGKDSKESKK

With `O=S(=O)(Nc1ncns1)c1cc(F)c(Oc2ccc(Cl)cc2-c2ccnn2C2CNC2)cc1F` the IC50 was 1.3 nM.

Source: ChEMBL document CHEMBL2321810, “QSAR investigation of NaV1.7 active compounds using the SVM/Signature approach and the Bioclipse Modeling platform” (Bioorg Med Chem Lett, 2013)
